{"source": "paper PMC4831274", "biological_target": "GST-LD1 fusion protein (paxillin leucine-rich motif 1)", "assay": "pull-down; purified recombinant GST-LD1 used to pull down FLAG-MEKK2 from transfected 293T cell lysates; compared with GST alone; only the target purified", "note": "These are yes or no findings as the source states them, for the method shown. Binding seen in cells or lysates may run through a third protein. Binding can be weak; no strength is given. Sequences can lack the tags named with a protein."}
{"binder": "FLAG-tagged wild-type full-length MEKK2 (MEK kinase 2) (enzyme, UniProt Q9Y2U5 1-619) MDDQQALNSIMQDLAVLHKASRPALSLQETRKAKSSSPKKQNDVRVKFEHRGEKRILQFPRPVKLEDLRSKAKIAFGQSMDLHYTNNELVIPLTTQDDLDKAVELLDRSIHMKSLKILLVINGSTQATNLEPLPSLEDLDNTVFGAERKKRLSIIGPTSRDRSSPPPGYIPDELHQVARNGSFTSINSEGEFIPESMDQMLDPLSLSSPENSGSGSCPSLDSPLDGESYPKSRMPRAQSYPDNHQEFSDYDNPIFEKFGKGGTYPRRYHVSYHHQEYNDGRKTFPRARRTQGTSLRSPVSFSPTDHSLSTSSGSSIFTPEYDDSRIRRRGSDIDNPTLTVMDISPPSRSPRAPTNWRLGKLLGQGAFGRVYLCYDVDTGRELAVKQVQFDPDSPETSKEVNALECEIQLLKNLLHERIVQYYGCLRDPQEKTLSIFMEYMPGGSIKDQLKAYGALTENVTRKYTRQILEGVHYLHSNMIVHRDIKGANILRDSTGNVKLGDFGASKRLQTICLSGTGMKSVTGTPYWMSPEVISGEGYGRKADIWSVACTVVEMLTEKPPWAEFEAMAAIFKIATQPTNPKLPPHVSDYTRDFLKRIFVEAKLRPSADELLRHMFVHYH", "values": [{"measurement": "binding", "value": "binds"}]}
